Measurements from US20030186863A1.
No constants are given. Whether binding was seen depends on the method and setting. Some results given as binding are weak or reduced against the parent protein; the word gives no strength.

The chains behind the UniProt entries cited, without tags or fusion partners. Residues count along the entry.
UniProt P62993, residues 1-58: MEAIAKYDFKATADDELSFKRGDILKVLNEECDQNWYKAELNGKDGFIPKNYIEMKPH

These binders were tested against GST-Grb2 N-terminal SH3 (Grb2 N, aa 1-58) (UniProt P62993) (assay: phage panning on GST-SH3, anti-phage ELISA).

binding, binds:
RFDYNLPDVPLSLGTA
YFDKPLPESPGALMSL
RFDFPLPTHPNLQKAH
DPYDALPETPSMKASQ
RLDSPLPALPPTVMQN
YFSRALPGLPERQEAH
RWDQVLPELPTSKGQI
KWDSLLPALPPAFTVE
RWGAPLPPLPEYSWST
YYRKPLPNLPRGQTDD
YWDMPLPRLPGEEPSL
TKKPNAPLPPLPAYMG
YYQRPLPPLPLSHFES
SLWDPLPPIPQSKTSV
KLYYPLPPVPFKDTKH
SYYDPLPKLPDPGDLG
KWDLDLPPEPMSLGNY

These binders were tested against GST-Nck middle SH3 (Nck M, aa 101-166) (UniProt P16333) (assay: phage panning on GST-SH3, anti-phage ELISA).

binding, binds:
SSVSEGYSPPLPPRSTSLSR (peptide, not shown: large carriers) [PXXP.NCK.S2.PP.INC]
SSLMGSWPPVPPLRSDSLSR (peptide, not shown: large carriers) [PXXP.NCK.R3.PP]
SSPYTGDVPIPPLRGASLSR (peptide, not shown: large carriers) [PXXP.NCK.R2.PP]
SRVVDGLAPPPPVRLSSLSR (peptide, not shown: large carriers; small tags and cut ends) [PXXP.NCK.T2.PP]
SSPPYELPPRPPNRTVSLSR (peptide, not shown: large carriers; small tags and cut ends) [PXXP.NCK.T1.PP]
SSISDYSRPPPPVRTLSLSR (peptide, not shown: large carriers; small tags and cut ends) [PXXP.NCK.T4.PP]
SRSLSEVSPKPPIRSVSLSR (peptide, not shown: large carriers) [PXXP.NCK.S1/4.PP]
SSSFTLAAPTPPTRSLSLSR (peptide, not shown: large carriers) [PXXP.NCK.S3.PP]
SSVGFADRPRPPLRVESLSR (peptide, not shown: large carriers) [PXXP.NCK.Q2/3.PP.INC]
SSLGVGWKPLPPMRTASLSR [PXXP.NCK.Q1/4.PP]
SSIGEDTPPSPPTRRASLSR (peptide, not shown: large carriers) [PXXP.NCK.R4.PP]
